Source: PubChem BioAssay AID445 (National Center for Advancing Translational Sciences (NCATS), 2006)
This is one part of the list. The main result of the screen is listed elsewhere. These columns were measured beside it and carry no call. Compounds called inactive in the main read-out are mostly missing here. Potencies come from curve fits of mixed quality, noted in brackets.

Experiment: IkB Signaling
Settings: ABC-DLBCL IkBa-CBG/CBR dual luciferase ratio (green luciferase fused to IkBa over red control in OCI-Ly3 lymphoma cells), 4 h; measured here: control luc red channel unless noted
Summary of the method: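 In this assay, an IκBα–CBG68 fusion accumulates when IKK-driven degradation is blocked; native CBR normalizes for cell number. OCI-Ly3 cells were treated 4 h with compound and doxycycline, then green and red light read after Chroma-Glo addition.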

| SMILES | AC50 |
| --- | --- |
| Cc1cccc(CC(=O)Nc2cccc(-c3cn4cccnc4n3)c2)c1 | 39.8 µM [falling, partial curve, poor fit] |
| COc1ccc(C(=O)c2no[n+]([O-])c2C(=O)c2ccc(OC)cc2)cc1 | 6.31 µM [falling, full curve] |
| Cc1ccc(CNC(=O)CCCn2nc(C)n3c(cc4sccc43)c2=O)cc1 | 0.251 µM [rising, full curve, poor fit] |
| Cc1ccc(C(=O)CSc2nnc(-c3ccco3)n2CC2CCCO2)cc1 (stereo not drawn) | 31.6 µM [falling, single point] |
| CCOC(=O)c1cccc(NC(=O)NC2COc3ccccc3C2)c1 (stereo not drawn) | 0.0398 µM [rising, full curve, poor fit] |
| COc1cc(NC(=O)C2CCN(S(=O)(=O)c3c(C)noc3/C=C/c3c(C)cc(C)cc3C)CC2)cc(OC)c1 | 39.8 µM [falling, single point] |
| COc1ccc(OC)c(CNc2ncc(-c3ccc(Cl)cc3)n2C)c1 | 10 µM [falling, partial curve] |
| Cc1cccc(C)c1NC(=O)c1cc2sccc2n1Cc1ccc(F)cc1 | 3.98 µM [rising, partial curve] |
| Cc1ccccc1CN1C(=O)c2ccccc2Sc2ccc(C(=O)NCCCN3CCOCC3)cc21 | 15.8 µM [falling, partial curve] |
| Cc1ccc(Sc2c(C)nn(-c3ccccc3)c2OC(=O)CC(C)C)cc1 | 3.98 µM [falling, partial curve] |
| CC(=O)c1ccc(S(=O)(=O)Nc2cccc(-c3ccc(N4CCCC4)nn3)c2)cc1 | 25.1 µM [falling, partial curve, poor fit] |
| CCOc1ccc(C2c3[nH]c4ccccc4c3CCN2C(=O)CCC2CCCC2)cc1 (stereo not drawn) | 0.794 µM [falling, full curve] |
| O=c1cc(-c2ccccc2)nc(SCc2nc(-c3cccc(C(F)(F)F)c3)no2)[nH]1 | 39.8 µM [falling, partial curve] |
| CCN(CCCNC(=O)CN1N=C(c2ccc(C)cc2)CCC1=O)c1ccccc1 | 31.6 µM [falling, single point] |
| CCCCN(CC)C(=O)Cn1cc2c(n1)-c1c(oc(C(=O)N3CCCC3)c1C)CC2 | 31.6 µM [falling, single point] |
| Cc1c(C#N)c2ccccc2n1CC(=O)NCCc1c[nH]c2ccccc12 | 20 µM [falling, partial curve] |
| COC(=O)COc1ccc(S(=O)(=O)Nc2ccc3c(c2)OCO3)cc1Cl | 15.8 µM [falling, partial curve] |
| COc1ccc(CNC(=O)C2CCN(c3nnc(C)c4c(C)n(-c5ccc(C)cc5)nc34)CC2)cc1 | 20 µM [falling, partial curve] |
| Cc1ccc(-c2nn3c(C)nnc3c3ccccc23)cc1S(=O)(=O)NC(C)(C)CO | 3.16 µM [rising, full curve] [measured here: IkB-luc green channel] |
| COc1ccc(OC)c(-c2cc(C(=O)NCc3ccc(Cl)cc3)no2)c1 | 3.98 µM [rising, partial curve, poor fit] |
| N#C/C(=C\c1ccc(O)c(O)c1)C(N)=O | 39.8 µM [falling, partial curve] |

| SMILES | AC50 |
| --- | --- |
| CCOc1ccc(N(C)S(=O)(=O)c2cc(-c3cnc(C)o3)ccc2OC)cc1 | 31.6 µM [falling, single point] |
| COc1ccc(/C=C/C(=O)Nc2cccc(F)c2)cc1 | 7.94 µM [falling, partial curve] |
| CC1CCCN(c2ncnc3c2nnn3C)C1 (stereo not drawn) | 20 µM [rising, single point] |
| CCCOC(=O)c1cccc(Nc2nc(C(=O)OCC)nc3ccccc23)c1 | 12.6 µM [falling, partial curve] |
| CCC1CN(C(=O)N2CCC(C(=O)NCc3ccccc3F)CC2)c2ccccc2O1 (stereo not drawn) | 0.0126 µM [rising, full curve, poor fit] |
| Cc1ccc(C=Nc2ccc(N(C)C)cc2)o1 | 0.251 µM [falling, full curve] |
| Cc1ccc(NC(=O)c2c(C)oc3ncnc(N4CCCCC4)c23)c(C)c1 | 12.6 µM [falling, partial curve] |
| CC(Oc1ccccc1F)C(=O)NCC1(N2CCOCC2)CCCCC1 (stereo not drawn) | 31.6 µM [falling, single point] |
| Cc1ccc(C)c(Cn2nnc3c(=O)[nH]c(C4CCCN(C(=O)C5CCCCC5)C4)nc32)c1 (stereo not drawn) | 20 µM [falling, single point] |
| CC(C)CN(CC(C)C)c1nnc(NC(=O)Nc2cccc(C(F)(F)F)c2)s1 | 25.1 µM [falling, partial curve] |
| COc1ccc(OCC(=O)Nc2ccc3c(c2)N(C)C(=O)c2ccccc2S3)cc1 | 20 µM [falling, partial curve] |
| COc1ccc(-c2cc(C(=O)Nc3c(C(=O)c4ccc(C)c(F)c4)oc4ccccc34)no2)cc1 | 3.98 µM [rising, full curve, poor fit] |
| COC(=O)CSc1nnc(-c2cccc(O)c2)o1 | 3.16 µM [falling, partial curve] |
| CCn1c(SCC(=O)c2cc(OC)ccc2OC)nnc1C1CC1 | 39.8 µM [rising, single point] [measured here: IkB-luc green channel] |
| COc1ccc(C(C)=O)cc1CSc1nc(NCc2ccc(Cl)cc2)c2ccccc2n1 | 1.26 µM [rising, full curve, poor fit] |
| CC1=C(C(=O)Nc2ccc(C)cc2C)C(c2cc(Br)ccc2F)n2ncc(C(=O)Nc3ccc(C)cc3)c2N1 (stereo not drawn) | 25.1 µM [falling, single point] |
| CCCn1c(CNc2ccccc2O)nc2ccccc21 | 5.01 µM [falling, partial curve] |
| Cc1ccc(NC(=O)c2cnc(SCC(=O)N3CCCc4ccccc43)n(C)c2=O)cc1C | 39.8 µM [falling, single point] |
| Cn1c(CC2C(=O)Nc3ccc(Br)cc32)nc2ccccc2c1=O (stereo not drawn) | 12.6 µM [falling, partial curve] |
| O=C(OCc1ccco1)c1ccc2c(c1)N(Cc1ccc([N+](=O)[O-])cc1)C(=O)c1ccccc1S2 | 39.8 µM [rising, partial curve, poor fit] |
| O=C(CN1C(=O)COc2ccc(S(=O)(=O)N3CCCC3)cc21)NCCc1ccc(Cl)cc1 | 7.94 µM [falling, partial curve, poor fit] |

Molecules above with bromine, in the order listed:

| SMILES | AC50 |
| --- | --- |
| CC1=C(C(=O)Nc2ccc(C)cc2C)C(c2cc(Br)ccc2F)n2ncc(C(=O)Nc3ccc(C)cc3)c2N1 (stereo not drawn) | 25.1 µM [falling, single point] |
| Cn1c(CC2C(=O)Nc3ccc(Br)cc32)nc2ccccc2c1=O (stereo not drawn) | 12.6 µM [falling, partial curve] |

Following part.

| SMILES | AC50 |
| --- | --- |
| C=CCn1c(C)cc(C(=O)CSc2nc3ccccc3c(=O)[nH]2)c1C | 12.6 µM [falling, partial curve] |
| O=c1[nH]c2ccc(NS(=O)(=O)c3ccc(F)cc3)cc2s1 | 12.6 µM [falling, partial curve] |
| COc1ccc2oc(=O)cc(CN3CCN(C(=O)c4ccccc4Br)CC3)c2c1 | 25.1 µM [falling, single point] |
| CCNc1nc(NC(C)(C)C)nc(N(C#N)CC)n1 | 1.26 µM [rising, partial curve] |
| CCOC(=O)c1ccc2nc(NC(=O)c3ccco3)sc2c1 | 12.6 µM [falling, partial curve] |
| CCc1ccc(CNC(=O)c2ccc(NC(=O)N3CCSc4ncccc43)cc2)cc1 | 15.8 µM [falling, partial curve] |
| Cc1ccc(S(=O)(=O)N2CCC(c3nnc(-c4cccc(C)c4)o3)CC2)cc1 | 39.8 µM [falling, single point] |
| COc1cc(Cl)c(C)cc1NC(=O)CSc1nc2ccccc2o1 | 15.8 µM [falling, partial curve] |
| O=c1c2ccccc2c(/C=N/c2ncn[nH]2)c(O)n1Cc1ccccc1 | 25.1 µM [falling, partial curve] |
| CC(C)NC(=O)Cn1c(=O)nc(-c2ccccc2)c2ccccc21 | 1.58 µM [falling, full curve] |
| CCOc1ccc(CCNC(=O)c2ccc(C)c(-n3cnc4cccnc43)c2)cc1 | 12.6 µM [falling, partial curve] |
| Cc1cccc(N(C)C(=O)CS(=O)(=O)c2cccc3nsnc23)c1 | 15.8 µM [falling, partial curve] |
| COc1cccc(CNC(=O)c2ccc3c(Cl)c4c(nc3c2)CCCC4)c1 | 10 µM [falling, partial curve] |
| Cc1ccc(C(C)C)c(OCc2ccc(C(=O)Nc3ccc(S(N)(=O)=O)cc3C)o2)c1 | 31.6 µM [falling, single point] |
| CCOc1ccccc1NC(=O)C1CCN(S(=O)(=O)c2cccc3nonc23)CC1 | 7.94 µM [rising, single point] |
| O=C(Nc1cc(-c2ccc(F)c(F)c2)no1)c1ccccc1F | 5.01 µM [falling, partial curve] |
| Cc1cccc(N2CCN(C(=O)C3CCCN(C(=O)c4cc5sccc5n4C)C3)CC2)c1C (stereo not drawn) | 25.1 µM [falling, partial curve] |
| COc1ccc(N2CCN(c3ncnc4onc(C)c34)CC2)cc1 | 1 µM [falling, partial curve, poor fit] |
| CCOc1ccc(CCNC(=O)Cn2ccc3cc(S(=O)(=O)N4CCCCCC4)ccc32)cc1 | 1.58 µM [falling, full curve] |
| COc1ccc(NC(=O)C(=O)c2cc(C)n(-c3ccc(C)cc3)c2C)cc1Cl | 15.8 µM [falling, partial curve] |
| Cn1c(CC(=O)Nc2ccccc2)nnc1SCCOc1ccccc1 | 5.01 µM [falling, partial curve] |
